Data as given in PubChem BioAssay AID504764 (Drosophila RNAi Screening Center, 2011)
Screen: 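Knock-downs that raise or lower a Notch target reporter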 (primary screen). System: Drosophila Kc167 cells. Reagents: long dsRNA against Drosophila genes. Duration: about 5 days (4 days dsRNA, then 24 h after transfection). Conditions: transfection of constitutively active membrane-tethered Notch lacking the extracellular domain, read 24 h later. Detection: 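Firefly luciferase from an E(spl)m3 reporter with active Notch, plus control-promoter and uninduced reporter wells for normalisation; unnormalised counts, duplicate wells a and b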. Direction: induced reporter light, run 1, well a and induced reporter light, run 1, well b: higher = more light from the Notch target reporter with active Notch; control promoter light, run 1, well a and control promoter light, run 1, well b: higher = more light from the viral control promoter (cell number, transfection, viability); uninduced reporter light, run 1, well a: higher = more light from the Notch target reporter without active Notch. Active means: 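Wells with low control signal or poorly matching duplicates excluded; duplicates averaged; per source plate, z beyond ±2 for induced/control log2 ratio or beyond ±1.8 for induced/uninduced marks a hit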. Calls: active = modifier hit (raised or lowered Notch signal); inactive = not a hit.
The deposit covers about 22,000 reagents; below is an unselected part of those that have a named target and a result. Over the whole deposit, 403 (1.9%) were called active. 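Unnormalised raw counts per well; ratio z-scores behind the hit calls and whether each hit raises or lowers signal are not deposited.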 Entries without a mark were called inactive. Reagents against one gene are numbered here. A plus sign joins genes that one reagent is predicted to hit. No sequences are given here. The record does not give: the amount of reagent.

| gene knocked down | reagent no. | induced reporter light, run 1, well a | induced reporter light, run 1, well b | control promoter light, run 1, well a | control promoter light, run 1, well b | uninduced reporter light, run 1, well a |
| --- | --- | --- | --- | --- | --- | --- |
| Desat1 | 1 | 67260 | 72670 | 51770 | 41740 | 4170 |
| dup | 1 | 44980 | 36940 | 38630 | 41995 | 5675 |
| mRpS7 | 1 | 2.94e5 | 2.68e5 | 2.90e5 | 3.04e5 | 21360 |
| CG7179 | 1 | 77325 | 80685 | 69940 | 82395 | 17165 |
| vg | 1 | 1.68e5 (active) | 1.63e5 | 1.85e5 | 1.65e5 | 12055 |
| COX6AL2 | 1 | 1.48e5 | 1.15e5 | 1.39e5 | 1.08e5 | 8450 |
| E5 | 1 | 20485 | 21660 | 15650 | 20520 | 3860 |
| E5 | 2 | 14238 | 13460 | 14288 | 11965 | 2830 |
| CG10700 | 1 | 56510 | 42850 | 44455 | 33515 | 1935 |
| ocn | 1 | 1.15e5 | 1.18e5 | 1.56e5 | 1.58e5 | 10820 |
| CG13540 | 1 | 2.08e5 | 2.26e5 | 1.99e5 | 2.09e5 | 15965 |
| coro | 1 | 65950 | 81900 | 58205 | 60795 | 4275 |
| Dmtn | 1 | 1.23e5 | 97620 | 1.01e5 | 1.05e5 | 8855 |
| IscU | 1 | 68445 | 72410 | 54675 | 61320 | 6785 |
| CG42372 + CG30100 | 1 | 1.66e5 | 1.66e5 | 1.95e5 | 1.90e5 | 11405 |
| CG6142 | 1 | 1.36e5 | 1.39e5 | 1.77e5 | 1.77e5 | 10395 |
| CG13160 | 1 | 1.31e5 | 1.44e5 | 1.79e5 | 1.78e5 | 11825 |
| CG32551 | 1 | 1.02e5 | 95190 | 1.14e5 | 1.08e5 | 8260 |
| CG1647 | 1 | 1.63e5 | 1.97e5 | 1.86e5 | 1.71e5 | 13120 |
| beat-Va | 1 | 1.11e5 | 1.31e5 | 1.02e5 | 1.12e5 | 7425 |
| Tdc1 | 1 | 82000 | 65995 | 82450 | 98785 | 4300 |
| Cul2 | 1 | 2.13e5 | 2.58e5 | 1.70e5 | 1.90e5 | 14005 |
| RpL37-2 | 1 | 1.84e5 | 1.55e5 | 1.34e5 | 1.53e5 | 12075 |
| Zif | 1 | 1.23e5 | 1.30e5 | 1.53e5 | 1.66e5 | 15235 |
| CG9760 | 1 | 69690 | 76800 | 92290 | 77135 | 4555 |
| fzr | 1 | 1.23e5 | 1.24e5 | 2.83e5 | 2.34e5 | 9400 |
| Ir56b | 1 | 1.55e5 | 1.06e5 | 1.31e5 | 1.27e5 | 11060 |
| U2af50 | 1 | 74740 | 83245 | 97500 | 81315 | 3850 |
| lectin-28C | 1 | 1.21e5 | 1.53e5 | 80610 | 1.18e5 | 24535 |
| Osi13 | 1 | 1.15e5 | 1.16e5 | 1.28e5 | 1.14e5 | 7835 |
| Pgant3 | 1 | 69650 (active) | 88030 | 55095 | 52265 | 5055 |
| CG31437 | 1 | 1.69e5 | 1.81e5 | 1.68e5 | 1.71e5 | 15780 |
| CG44433 | 1 | 86005 | 63015 | 93435 | 79805 | 6905 |
| CG44433 | 2 | 46365 | 48040 | 50745 | 60445 | 6175 |
| ste24b | 1 | 1.30e5 | 97655 | 1.14e5 | 1.30e5 | 5945 |
| CG13766 | 1 | 2.12e5 | 1.62e5 | 1.95e5 | 1.68e5 | 11255 |
| Eaf | 1 | 19205 | 19195 | 18090 | 22725 | 3045 |
| Eaf | 2 | 2.55e5 | 2.24e5 | 1.78e5 | 2.25e5 | 16510 |
| CG14089 | 1 | 1.34e5 | 1.05e5 | 1.26e5 | 1.11e5 | 9690 |
| CG3690 | 1 | 1.13e5 | 1.22e5 | 2.11e5 | 1.89e5 | 7500 |
| CG3690 | 2 | 1.31e5 | 1.58e5 | 2.52e5 | 2.14e5 | 9255 |
| CG7025 | 1 | 1.28e5 | 1.69e5 | 2.14e5 | 1.49e5 | 8105 |
| Rcd2 | 1 | 72880 | 53180 | 46960 | 50225 | 4745 |
| dpr16 | 1 | 1.50e5 | 1.26e5 | 1.11e5 | 1.21e5 | 9320 |
| dpr16 | 2 | 1.84e5 | 2.14e5 | 3.41e5 | 2.84e5 | 14600 |
| CG11279 | 1 | 1.53e5 | 1.11e5 | 1.51e5 | 1.35e5 | 8605 |
| CG4914 | 1 | 2.00e5 | 1.40e5 | 2.43e5 | 2.02e5 | 10600 |
| epsilonCOP | 1 | 68460 | 77785 | 66550 | 71080 | 5795 |
| CG14286 | 1 | 1.80e5 | 1.78e5 | 2.11e5 | 1.58e5 | 12525 |
| oxt | 1 | 63475 | 62250 | 1.03e5 | 95520 | 4765 |

Entries listed so far whose target name starts with I or i (2):
| gene knocked down | reagent no. | induced reporter light, run 1, well a | induced reporter light, run 1, well b | control promoter light, run 1, well a | control promoter light, run 1, well b | uninduced reporter light, run 1, well a |
| --- | --- | --- | --- | --- | --- | --- |
| IscU | 1 | 68445 | 72410 | 54675 | 61320 | 6785 |
| Ir56b | 1 | 1.55e5 | 1.06e5 | 1.31e5 | 1.27e5 | 11060 |
